The experiment has as its target T1, Caveolin 1 (rat) (UniProt P41350).
T1 sequence: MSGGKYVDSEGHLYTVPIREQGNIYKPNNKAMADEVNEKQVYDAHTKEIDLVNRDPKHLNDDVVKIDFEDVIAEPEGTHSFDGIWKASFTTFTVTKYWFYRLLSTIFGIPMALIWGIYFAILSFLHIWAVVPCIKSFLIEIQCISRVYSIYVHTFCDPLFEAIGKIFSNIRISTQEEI
Nature of the experiment: co-IP; total protein lysates of HEK Cav1 cells 24 h after transfection with YFP-tagged channels; immunoprecipitation against caveolin, blot against GFP; 1% Triton X-100 NHG buffer, 4 °C.

These are yes or no findings as the source states them, for the method shown. In cells and extracts the contact can be indirect. Binding calls can cover weak binding; strength is not graded here.

Regarding Kv1.3ΔCt (rat) (domain or fragment), the binding result was “binds”.
As to Kv1.3ΔNt (rat) (domain or fragment), the binding result is “no binding”.

Values taken from publication PMC4773814.
